This series concerns Δ^5- and Δ^8-desaturases. The experiment in a line: Yeast cell transformed with both Δ^5- and Δ^8-desaturase genes (pYFAT4 + pYX232-541) fed fatty acid substrates, GC. Type of series: cell-based, Saccharomyces cerevisiae. To be noted: for Fatty acid uptake: overnight culture at 28° C. The text has this:
The cDNA portion of pJW541 (Wallis and Browse, Arch. Biochem. Biophys. 365:307-316, 1999) containing the Euglena Δ^8-desaturase was excised from that plasmid with the restriction enzymes EcoRI and SpeI. The purified DNA fragment representing the insert was ligated into the yeast expression vector pYX232 (R&D Systems, Inc.) that had been prepared by digestion with EcoRI and NheI, to give compatible sticky ends. (Plasmid pYX232 carries the marker conferring yeast prototrophy for tryptophan (TRP1 mutation), and uses the triose phosphate isomerase (TPI) promoter for constitutive expression of the inserted DNA.) The resulting plasmid, pYX232-541, was introduced into the Saccharomyces cerevisiae strain already harboring the Δ^5-desaturase (pYFAT4; Watts and Browse, Arch. Biochem. Biophys. 362:175-182, 1999) plasmid that confers yeast prototrophy for uracil using a lithium acetate transformation procedure (Invitrogen). Transformants were selected simultaneously for uracil and tryptophan prototrophy. Selected colonies arising after the transformation were inoculated into yeast minimal medium that also lacked both uracil and tryptophan.
For analysis of activity, separate cultures were supplemented with one of three fatty acid substrates provided as sodium salts as described (Wallis and Browse, Arch. Biochem. Biophys. 365:307-316, 1999). After overnight culture at 28° C., the cultures were harvested by centrifugation and washed. Fatty acid methyl esters were prepared using the standard methods described in Miguel and Browse J. Biol. Chem. 267:1502-1509, 1992.

Some results come without the dose or concentration used.

Take `CCC=CCC=CCC=CCCCCCCCCCC(=O)O` [20:3Δ^11,14,17]: the “20-carbon fatty acid level of the total cellular fatty acid” value worked out at 37% and the Fatty acid uptake is listed as 37 mass percent of whole cell fatty acids.
For `CCCCCC=CCC=CCCCCCCCCCC(=O)O` [20:2Δ^11,14], in that order: 21% and 21 mass percent of whole cell fatty acids.
For `CCCCCCCCC=CCCCCCCCCCC(=O)O` [20:1Δ^11], in that order: 13% and 13 mass percent of whole cell fatty acids.

(Values after patent publication US10351871B2, “Desaturases and methods of using them for synthesis of polyunsaturated fatty acids” (Washington State University, priority 1998, dated 2019).)
